{"source": "paper PMC10615203", "about": "“The 14-3-3 protein OsGF14f interacts with OsbZIP23 and enhances its activity to confer osmotic stress tolerance in rice”", "target": "T1, GST-OsbZIP23 (UniProt Q6Z312)", "T1 sequence": "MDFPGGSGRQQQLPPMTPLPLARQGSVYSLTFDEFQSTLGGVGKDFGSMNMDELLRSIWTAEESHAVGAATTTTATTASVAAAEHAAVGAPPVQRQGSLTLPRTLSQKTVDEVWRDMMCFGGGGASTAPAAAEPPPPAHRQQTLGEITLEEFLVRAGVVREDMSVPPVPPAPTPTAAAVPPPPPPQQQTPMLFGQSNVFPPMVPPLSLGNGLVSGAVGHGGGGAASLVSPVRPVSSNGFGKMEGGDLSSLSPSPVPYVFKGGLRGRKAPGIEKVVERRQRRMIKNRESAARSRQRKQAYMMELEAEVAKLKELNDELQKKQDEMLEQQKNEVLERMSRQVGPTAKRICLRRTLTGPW", "test": "EMSA", "conditions": "G-box-dependent binding stated, whether mutant was used as probe or competitor not stated; EMSA kit (Viagene) binding buffer (composition not given), room temperature, 20 min; 6% native PAGE; recombinant protein; protein details: GST (N-terminal, pGEX-4T-3)", "note": "No signal at the amounts used counts as a negative. At least one verdict rests on a figure or table, not on a statement of the authors. Where a protein sequence is shown, tags need not be part of it.", "data": [{"sequence": "TGGCGCCTTGCCTTTTGCCCCCTCCCT (double strand) [OsGF14f promoter mutant probe (GF14fm)]", "values": [{"measurement": "binding result", "result": "no binding"}]}]}
